Measurements from article PMC5023631.
These are yes or no findings as the source states them, for the method shown. For some of these results: In cells and extracts the contact can be indirect. Some binding calls cover weakened binding; strength is not graded here. For some of these results: Where a sequence is shown, tags or fusion partners need not be part of it. Each block holds one molecule with its values, some of them ahead of it.

By UniProt entry, the sequences of proteins in these tests, tags left out. Where a name states a change or a piece, a line headed by the entry shows the natural chain unless it says otherwise.
UniProt O43526: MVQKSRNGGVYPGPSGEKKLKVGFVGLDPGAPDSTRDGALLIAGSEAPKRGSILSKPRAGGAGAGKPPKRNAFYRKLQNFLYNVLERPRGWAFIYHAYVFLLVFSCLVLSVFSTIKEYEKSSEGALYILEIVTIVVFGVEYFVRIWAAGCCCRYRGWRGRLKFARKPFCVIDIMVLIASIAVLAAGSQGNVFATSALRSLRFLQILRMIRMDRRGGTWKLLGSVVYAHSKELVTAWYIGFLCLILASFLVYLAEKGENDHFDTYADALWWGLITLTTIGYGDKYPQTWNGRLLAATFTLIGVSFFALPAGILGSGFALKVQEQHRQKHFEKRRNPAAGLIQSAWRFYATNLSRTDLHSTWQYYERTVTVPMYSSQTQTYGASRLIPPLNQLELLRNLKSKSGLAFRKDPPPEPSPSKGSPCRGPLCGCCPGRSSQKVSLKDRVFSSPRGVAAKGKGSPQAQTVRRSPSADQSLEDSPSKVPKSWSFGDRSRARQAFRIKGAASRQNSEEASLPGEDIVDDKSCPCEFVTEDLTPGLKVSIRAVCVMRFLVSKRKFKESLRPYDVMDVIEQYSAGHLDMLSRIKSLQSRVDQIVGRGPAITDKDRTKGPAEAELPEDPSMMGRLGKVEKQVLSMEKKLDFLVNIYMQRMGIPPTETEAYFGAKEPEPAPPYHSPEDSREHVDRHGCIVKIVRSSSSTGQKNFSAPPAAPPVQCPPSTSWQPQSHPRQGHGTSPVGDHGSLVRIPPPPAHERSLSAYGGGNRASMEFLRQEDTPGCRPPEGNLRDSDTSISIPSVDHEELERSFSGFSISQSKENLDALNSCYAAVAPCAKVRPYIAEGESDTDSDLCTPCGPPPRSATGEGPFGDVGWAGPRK
UniProt O88944: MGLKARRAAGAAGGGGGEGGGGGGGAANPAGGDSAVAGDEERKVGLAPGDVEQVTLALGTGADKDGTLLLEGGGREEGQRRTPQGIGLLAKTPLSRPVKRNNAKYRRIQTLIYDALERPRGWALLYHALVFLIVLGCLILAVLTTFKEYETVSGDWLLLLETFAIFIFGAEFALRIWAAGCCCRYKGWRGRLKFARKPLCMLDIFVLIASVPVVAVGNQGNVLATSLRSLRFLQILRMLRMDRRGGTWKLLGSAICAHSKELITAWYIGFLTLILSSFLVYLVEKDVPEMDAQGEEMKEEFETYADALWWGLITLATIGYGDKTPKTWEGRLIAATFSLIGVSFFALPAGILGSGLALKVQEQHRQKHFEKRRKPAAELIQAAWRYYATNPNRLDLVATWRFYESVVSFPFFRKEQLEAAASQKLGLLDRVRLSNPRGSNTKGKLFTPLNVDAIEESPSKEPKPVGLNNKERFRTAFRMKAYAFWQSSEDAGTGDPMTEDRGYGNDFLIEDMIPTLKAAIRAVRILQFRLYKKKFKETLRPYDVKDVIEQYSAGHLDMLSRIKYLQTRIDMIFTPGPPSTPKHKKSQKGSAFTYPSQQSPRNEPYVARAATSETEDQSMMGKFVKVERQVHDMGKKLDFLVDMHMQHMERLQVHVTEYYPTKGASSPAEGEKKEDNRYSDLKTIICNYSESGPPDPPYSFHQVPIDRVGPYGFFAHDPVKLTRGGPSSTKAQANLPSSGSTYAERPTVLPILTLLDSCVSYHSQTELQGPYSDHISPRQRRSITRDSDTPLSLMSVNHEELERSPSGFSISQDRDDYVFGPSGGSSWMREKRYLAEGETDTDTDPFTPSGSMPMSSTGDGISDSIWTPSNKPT
UniProt Q00975: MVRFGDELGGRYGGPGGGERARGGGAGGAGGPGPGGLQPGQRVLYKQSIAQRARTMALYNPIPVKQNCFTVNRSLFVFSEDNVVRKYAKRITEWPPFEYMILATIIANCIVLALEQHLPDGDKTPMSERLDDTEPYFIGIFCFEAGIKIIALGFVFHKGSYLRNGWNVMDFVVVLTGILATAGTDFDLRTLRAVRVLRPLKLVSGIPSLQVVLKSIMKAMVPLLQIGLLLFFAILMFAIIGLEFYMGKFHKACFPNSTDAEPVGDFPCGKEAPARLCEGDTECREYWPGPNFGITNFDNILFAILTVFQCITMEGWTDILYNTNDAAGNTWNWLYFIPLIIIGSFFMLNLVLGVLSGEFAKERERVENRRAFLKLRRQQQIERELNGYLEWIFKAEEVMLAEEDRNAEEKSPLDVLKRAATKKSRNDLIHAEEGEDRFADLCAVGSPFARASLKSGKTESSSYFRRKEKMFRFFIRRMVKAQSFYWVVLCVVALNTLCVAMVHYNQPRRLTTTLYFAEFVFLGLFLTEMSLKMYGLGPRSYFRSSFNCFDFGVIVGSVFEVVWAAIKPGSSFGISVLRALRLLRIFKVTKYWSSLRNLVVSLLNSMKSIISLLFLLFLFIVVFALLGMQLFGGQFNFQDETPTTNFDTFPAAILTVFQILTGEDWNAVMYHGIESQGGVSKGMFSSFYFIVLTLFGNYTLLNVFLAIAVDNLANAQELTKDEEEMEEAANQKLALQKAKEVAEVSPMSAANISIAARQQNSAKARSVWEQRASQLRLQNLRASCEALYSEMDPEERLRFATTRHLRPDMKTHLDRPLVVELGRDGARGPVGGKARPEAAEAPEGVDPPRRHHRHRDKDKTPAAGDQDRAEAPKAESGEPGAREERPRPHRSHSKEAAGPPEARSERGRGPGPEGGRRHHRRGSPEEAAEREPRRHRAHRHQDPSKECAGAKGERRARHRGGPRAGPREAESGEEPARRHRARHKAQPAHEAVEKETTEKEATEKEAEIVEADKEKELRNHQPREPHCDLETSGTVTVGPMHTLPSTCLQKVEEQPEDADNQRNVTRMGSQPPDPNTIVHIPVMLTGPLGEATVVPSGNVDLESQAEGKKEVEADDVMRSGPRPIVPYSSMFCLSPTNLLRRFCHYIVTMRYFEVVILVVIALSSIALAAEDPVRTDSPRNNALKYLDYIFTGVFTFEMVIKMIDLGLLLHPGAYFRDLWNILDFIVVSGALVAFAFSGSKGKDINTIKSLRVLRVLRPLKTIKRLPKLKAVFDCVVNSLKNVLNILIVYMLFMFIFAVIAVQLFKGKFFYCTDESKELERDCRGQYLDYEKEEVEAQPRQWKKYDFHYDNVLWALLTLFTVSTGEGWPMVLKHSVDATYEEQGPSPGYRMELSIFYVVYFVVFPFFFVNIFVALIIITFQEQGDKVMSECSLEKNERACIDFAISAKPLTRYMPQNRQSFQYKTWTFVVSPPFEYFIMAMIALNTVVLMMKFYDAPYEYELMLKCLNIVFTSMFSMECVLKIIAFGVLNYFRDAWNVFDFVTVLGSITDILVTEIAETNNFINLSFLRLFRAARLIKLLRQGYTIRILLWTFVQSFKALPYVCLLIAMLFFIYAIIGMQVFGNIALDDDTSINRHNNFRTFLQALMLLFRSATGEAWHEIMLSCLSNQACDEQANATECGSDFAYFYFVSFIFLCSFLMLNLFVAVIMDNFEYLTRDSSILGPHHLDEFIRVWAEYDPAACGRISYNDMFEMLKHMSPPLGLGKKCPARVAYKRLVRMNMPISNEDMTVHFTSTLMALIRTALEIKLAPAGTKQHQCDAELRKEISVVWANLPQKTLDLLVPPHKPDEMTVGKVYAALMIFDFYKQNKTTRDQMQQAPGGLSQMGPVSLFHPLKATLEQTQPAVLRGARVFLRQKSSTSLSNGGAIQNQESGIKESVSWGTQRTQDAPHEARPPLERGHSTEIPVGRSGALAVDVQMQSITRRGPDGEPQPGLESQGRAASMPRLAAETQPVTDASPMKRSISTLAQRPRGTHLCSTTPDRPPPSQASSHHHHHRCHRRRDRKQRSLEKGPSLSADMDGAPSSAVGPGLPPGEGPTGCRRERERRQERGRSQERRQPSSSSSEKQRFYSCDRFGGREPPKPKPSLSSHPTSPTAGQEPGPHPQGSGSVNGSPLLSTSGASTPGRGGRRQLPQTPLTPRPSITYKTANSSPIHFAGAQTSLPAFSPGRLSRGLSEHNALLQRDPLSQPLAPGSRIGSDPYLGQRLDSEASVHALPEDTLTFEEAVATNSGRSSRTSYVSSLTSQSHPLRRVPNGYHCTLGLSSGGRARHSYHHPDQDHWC
UniProt P13806: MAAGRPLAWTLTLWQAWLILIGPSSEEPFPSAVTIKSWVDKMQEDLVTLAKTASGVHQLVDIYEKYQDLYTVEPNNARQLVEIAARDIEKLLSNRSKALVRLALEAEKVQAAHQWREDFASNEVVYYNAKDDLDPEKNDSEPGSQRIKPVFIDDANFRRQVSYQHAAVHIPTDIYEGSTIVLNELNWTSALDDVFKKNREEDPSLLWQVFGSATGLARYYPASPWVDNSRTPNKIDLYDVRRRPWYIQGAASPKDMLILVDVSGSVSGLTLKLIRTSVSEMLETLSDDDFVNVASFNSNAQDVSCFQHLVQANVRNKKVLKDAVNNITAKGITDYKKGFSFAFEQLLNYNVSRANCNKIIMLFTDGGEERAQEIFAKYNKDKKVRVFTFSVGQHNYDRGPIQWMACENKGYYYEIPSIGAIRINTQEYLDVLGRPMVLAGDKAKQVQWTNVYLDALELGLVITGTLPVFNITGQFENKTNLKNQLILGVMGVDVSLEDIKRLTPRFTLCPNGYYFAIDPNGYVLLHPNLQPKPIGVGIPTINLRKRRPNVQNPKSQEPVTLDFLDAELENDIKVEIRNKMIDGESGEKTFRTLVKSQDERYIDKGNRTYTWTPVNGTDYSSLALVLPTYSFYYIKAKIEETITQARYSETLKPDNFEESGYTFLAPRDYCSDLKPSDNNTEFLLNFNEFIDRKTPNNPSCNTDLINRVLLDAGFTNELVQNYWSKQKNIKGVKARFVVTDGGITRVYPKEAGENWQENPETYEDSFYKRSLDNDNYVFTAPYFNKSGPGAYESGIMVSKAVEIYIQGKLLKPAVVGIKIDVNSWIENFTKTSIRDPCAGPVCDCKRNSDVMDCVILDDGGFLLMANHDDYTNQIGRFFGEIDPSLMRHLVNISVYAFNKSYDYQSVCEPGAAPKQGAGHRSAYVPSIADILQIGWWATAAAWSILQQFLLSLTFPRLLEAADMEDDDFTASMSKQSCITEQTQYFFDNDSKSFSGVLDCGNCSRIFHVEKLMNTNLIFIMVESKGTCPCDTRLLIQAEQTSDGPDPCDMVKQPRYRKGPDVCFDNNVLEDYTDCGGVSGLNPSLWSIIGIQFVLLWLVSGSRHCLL
UniProt Q9EPX4: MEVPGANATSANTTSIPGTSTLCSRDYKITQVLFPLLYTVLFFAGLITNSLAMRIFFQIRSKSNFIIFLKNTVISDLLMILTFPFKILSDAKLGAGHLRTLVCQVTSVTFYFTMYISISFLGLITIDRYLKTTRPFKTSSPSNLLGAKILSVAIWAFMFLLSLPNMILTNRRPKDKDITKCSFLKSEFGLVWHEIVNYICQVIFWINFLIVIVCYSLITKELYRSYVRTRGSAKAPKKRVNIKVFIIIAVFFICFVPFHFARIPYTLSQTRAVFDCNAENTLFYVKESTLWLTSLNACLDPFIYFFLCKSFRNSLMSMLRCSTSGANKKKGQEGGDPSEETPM

Tests used:
[1] = molecular target: EYFP-tagged Kv7.2 (human) (UniProt O43526); test: FRET or BRET; epifluorescence three-filter FRET (normalized FRET, NFRET) between ECFP and EYFP fusion proteins in living tsA 201 cells 24 h after transfection; buffer NaCl 140, CaCl2 2.5, MgCl2 2, KOH 3, glucose 20, HEPES 10 mM, pH 7.4
[2] = molecular target: T1, Kv7.2/7.3 heteromers in which Kv7.2 carried the EYFP tag (human | rat) (UniProt O43526+O88944); test: as above
[3] = molecular target: EYFP-tagged Cav2.2 channel (Cav2.2-EYFP coexpressed with accessory β3 and α2δ1 subunits) (human | rat | rabbit) (UniProt Q00975+P54287+P13806); test: fluorescence recovery after photobleaching (FRAP); FRAP in TIRF microscopy of YFP-tagged channels and CFP-tagged receptors expressed alone or together in tsA 201 cells; bleached spot of approximately 4 μm; recovery time constants compared; P2Y1 with Kv7 heteromers also with 10 μM ADP (unaffected)
[4] = molecular target: T1, Kv7.2/7.3 heteromers in which Kv7.2 carried the EYFP tag (human | rat); test: as above
[5] = molecular target: T1, Kv7.2/7.3 heteromers in which Kv7.2 carried the EYFP tag (human | rat); test: FRET or BRET; donor recovery after acceptor photobleaching (DRAP) in TIRF microscopy, FRET efficiency as percent increase in CFP emission after YFP photobleaching; living tsA 201 cells 48 h after transfection; penetration depth 80 nm; P2Y1 with Kv7 channels also in the presence of 10 μM ADP (no change)
[6] = molecular target: ECFP- and EYFP-labeled P2X2 subunits (UniProt P49653); test: FRET or BRET; epifluorescence three-filter FRET (normalized FRET, NFRET) between ECFP and EYFP fusion proteins in living tsA 201 cells 24 h after transfection; buffer NaCl 140, CaCl2 2.5, MgCl2 2, KOH 3, glucose 20, HEPES 10 mM, pH 7.4
NTPDase1-EYFP = molecular target: T2, NTPDase1-EYFP (UniProt P97687); test: FRET or BRET; donor recovery after acceptor photobleaching (DRAP) in TIRF microscopy, FRET efficiency as percent increase in CFP emission after YFP photobleaching; living tsA 201 cells 48 h after transfection; penetration depth 80 nm; P2Y1 with Kv7 channels also in the presence of 10 μM ADP (no change)
T2 sequence: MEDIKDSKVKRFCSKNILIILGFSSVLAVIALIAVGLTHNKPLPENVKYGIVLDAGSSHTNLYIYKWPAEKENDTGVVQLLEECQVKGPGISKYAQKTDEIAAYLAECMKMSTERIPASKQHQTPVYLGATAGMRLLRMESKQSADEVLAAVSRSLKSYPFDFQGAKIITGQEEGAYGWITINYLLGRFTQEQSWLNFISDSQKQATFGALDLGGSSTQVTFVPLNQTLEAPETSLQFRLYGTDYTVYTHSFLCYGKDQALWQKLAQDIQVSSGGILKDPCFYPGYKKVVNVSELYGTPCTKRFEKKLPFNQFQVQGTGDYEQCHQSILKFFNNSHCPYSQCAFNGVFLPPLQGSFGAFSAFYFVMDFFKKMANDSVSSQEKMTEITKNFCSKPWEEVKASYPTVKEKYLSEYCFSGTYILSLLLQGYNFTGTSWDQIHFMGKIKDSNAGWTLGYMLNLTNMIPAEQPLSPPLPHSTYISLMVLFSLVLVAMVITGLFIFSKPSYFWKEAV

binding [1]: binds
Molecule: ECFP-tagged Kv7.3 (from UniProt O88944 1-873)

binding [2]: no binding | binding [3]: binds | binding [4]: no binding | binding [5]: no binding
Molecule: P2Y12 receptor carrying a C-terminal ECFP (from UniProt Q9EPX4 1-343)

binding [6]: binds | binding (NTPDase1-EYFP): no binding
B1: ECFP- and EYFP-labeled P2X2 subunits (receptor, UniProt P49653 1-472)
chain: MVRRLARGCWSAFWDYETPKVIVVRNRRLGFVHRMVQLLILLYFVWYVFIVQKSYQDSETGPESSIITKVKGITMSEDKVWDVEEYVKPPEGGSVVSIITRIEVTPSQTLGTCPESMRVHSSTCHSDDDCIAGQLDMQGNGIRTGHCVPYYHGDSKTCEVSAWCPVEDGTSDNHFLGKMAPNFTILIKNSIHYPKFKFSKGNIASQKSDYLKHCTFDQDSDPYCPIFRLGFIVEKAGENFTELAHKGGVIGVIINWNCDLDLSESECNPKYSFRRLDPKYDPASSGYNFRFAKYYKINGTTTTRTLIKAYGIRIDVIVHGQAGKFSLIPTIINLATALTSIGVGSFLCDWILLTFMNKNKLYSHKKFDKVRTPKHPSSRWPVTLALVLGQIPPPPSHYSQDQPPSPPSGEGPTLGEGAELPLAVQSPRPCSISALTEQVVDTLGQHMGQRPPVPEPSQQDSTSTDPKGLAQL
